# Data reported in article PMC9071130 (PLoS ONE, 2022).
# Assay: peptide made by a vendor
# Conditions: whole synthesis, high-performance liquid chromatography
row,Substance,final HPLC purity [%]
1,GGLFRF-NH2,99.4
2,GSLFRF-NH2,98.9
3,GSTLFRF-NH2,99.1
4,GTLFRF-NH2,99.1
5,QDAMLAPPDRPSEFRSPDQLRQYLKALNEYYAIVGRPRF-NH2,95.0
